PubChem BioAssay AID1259308 | NCATS – 2017
Purpose: 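Knock-downs that increase output of a recombinant reporter protein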 (primary screen). Cells: human HEK293 embryonic kidney cells stably expressing firefly luciferase (HEK-CMV-Luc2-Hygro). Reagent: single siRNA against human genes, 0.8 pmol siRNA per well. Duration: 72 h. Measurement: 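Reporter luminescence and viable-cell signal on separate replicate plates, given as percent of non-targeting control and median/MAD z-scores, plus per-cell luciferase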. Reading the numbers: total luciferase, z-score and total luciferase, % of control: higher = more reporter protein produced; luciferase per cell, z-score: higher = more reporter output per viable cell. Call rule: 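An siRNA counts as active if its total luciferase robust z-score exceeds 3; genes with two or more such siRNAs out of three were retested with fresh siRNAs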. Meaning of the calls: active = raised luciferase; inactive = no rise.
Here is one part, drawn at random, of about 59,000 deposited reagents. Over the whole deposit, about 1,510 (2.6%) are marked active. 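Calls use total luciferase alone and ignore viability, so some active siRNAs may act by altering cell number.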 A number with no mark means an inactive call. Not all columns of the deposit are shown. Reagent sequences are not shown.

gene	PubChem SID	total luciferase, z-score	total luciferase, % of control	luciferase per cell, z-score
ANKRA2 (GeneID 57763)	SID160746702	-1.01	61.9	-1.29
ANKRA2 (GeneID 57763)	SID160746703	2.24	126	2.92
ANKRA2 (GeneID 57763)	SID160746704	-0.26	76.7	-0.301
TBC1D1 (GeneID 23216)	SID160735740	3.03 (active)	142	2.47
TBC1D1 (GeneID 23216)	SID160735741	0.153	84.9	0.236
TBC1D1 (GeneID 23216)	SID160735742	-0.948	63	-1.47
USP31 (GeneID 57478)	SID160746065	-1.13	59.5	-0.643
USP31 (GeneID 57478)	SID160746066	-1.28	56.3	-0.646
USP31 (GeneID 57478)	SID160746068	-0.59	70.1	-0.654
PPIP5K2 (GeneID 23262)	SID160735865	-1.33	55.4	-0.718
PPIP5K2 (GeneID 23262)	SID160735866	-0.389	74.1	0.0425
PPIP5K2 (GeneID 23262)	SID160735867	-0.793	66.1	-0.339
ARHGEF11 (GeneID 9826)	SID160723191	-0.322	75.5	-0.817
ARHGEF11 (GeneID 9826)	SID160723192	1.26	107	1.17
ARHGEF11 (GeneID 9826)	SID160723193	-1.48	52.4	-1.55
OSTCP2 (GeneID 646567)	SID160733996	-0.195	78	-0.168
OSTCP2 (GeneID 646567)	SID160769926	0.0995	83.9	-0.193
OSTCP2 (GeneID 646567)	SID160769927	0.626	94.3	0.147
CDC23 (GeneID 8697)	SID160720623	-1.95	43.1	-2.48
CDC23 (GeneID 8697)	SID160720624	0.346	88.8	0.236
CDC23 (GeneID 8697)	SID160720625	-1.26	56.9	-1.7
MUC12 (GeneID 10071)	SID160724936	-2.56	31	-1.95
MUC12 (GeneID 10071)	SID160724940	0.363	89.1	0.175
MUC12 (GeneID 10071)	SID160724950	1.1	104	1.57
ELAVL4 (GeneID 1996)	SID160730749	0.0938	83.8	-0.136
ELAVL4 (GeneID 1996)	SID160759713	-0.24	77.1	0.0382
ELAVL4 (GeneID 1996)	SID160759723	-0.271	76.5	-0.936
DUSP12 (GeneID 11266)	SID160730324	0.27	87.3	0.701
DUSP12 (GeneID 11266)	SID160730325	-0.0519	80.9	-0.393
DUSP12 (GeneID 11266)	SID160730326	-1.43	53.5	-2.07

6 entries from above, set out differently.
{"gene": "ANKRA2 (GeneID 57763)", "PubChem SID": "SID160746702", "total luciferase, z-score": -1.01, "total luciferase, % of control": 61.9, "luciferase per cell, z-score": -1.29}
{"gene": "ANKRA2 (GeneID 57763)", "PubChem SID": "SID160746703", "total luciferase, z-score": 2.24, "total luciferase, % of control": 126, "luciferase per cell, z-score": 2.92}
{"gene": "ANKRA2 (GeneID 57763)", "PubChem SID": "SID160746704", "total luciferase, z-score": -0.26, "total luciferase, % of control": 76.7, "luciferase per cell, z-score": -0.301}
{"gene": "TBC1D1 (GeneID 23216)", "PubChem SID": "SID160735740", "total luciferase, z-score": "3.03 (active)", "total luciferase, % of control": 142, "luciferase per cell, z-score": 2.47}
{"gene": "TBC1D1 (GeneID 23216)", "PubChem SID": "SID160735741", "total luciferase, z-score": 0.153, "total luciferase, % of control": 84.9, "luciferase per cell, z-score": 0.236}
{"gene": "TBC1D1 (GeneID 23216)", "PubChem SID": "SID160735742", "total luciferase, z-score": -0.948, "total luciferase, % of control": 63, "luciferase per cell, z-score": -1.47}

Additional records:
gene	PubChem SID	total luciferase, z-score	total luciferase, % of control	luciferase per cell, z-score
POLQ (GeneID 10721)	SID160729090	0.0926	83.7	0.272
POLQ (GeneID 10721)	SID160729092	0.301	87.9	0.184
POLQ (GeneID 10721)	SID160729093	-0.411	73.7	-0.622
AFTPH (GeneID 54812)	SID160742216	-0.215	77.6	-0.192
AFTPH (GeneID 54812)	SID160742217	-1.77	46.7	-1.7
AFTPH (GeneID 54812)	SID160742218	-1.51	51.9	-1.71
RND2 (GeneID 8153)	SID160719671	-0.471	72.5	-0.993
RND2 (GeneID 8153)	SID160719673	1.26	107	0.919
RND2 (GeneID 8153)	SID160731968	1.21	106	1.55
TLR9 (GeneID 54106)	SID160741575	-0.119	79.5	-0.0923
TLR9 (GeneID 54106)	SID160741576	0.349	88.8	0.482
TLR9 (GeneID 54106)	SID160741577	0.964	101	0.636
PINLYP (GeneID 390940)	SID160733263	-0.857	64.8	-0.967
PINLYP (GeneID 390940)	SID160766609	0.319	88.2	0.409
PINLYP (GeneID 390940)	SID160766610	0.974	101	0.625
TMEM125 (GeneID 128218)	SID160756716	-0.527	71.4	-0.766
TMEM125 (GeneID 128218)	SID160756717	0.658	95	1.33
TMEM125 (GeneID 128218)	SID160756718	1.67	115	1.17
MORN3 (GeneID 283385)	SID160762888	-1.93	43.5	-2.19
MORN3 (GeneID 283385)	SID160762889	0.619	94.2	1.56
MORN3 (GeneID 283385)	SID160762890	-0.206	77.8	0.42
LOC401068 (retired record) (GeneID 401068)	SID160767135	0.0221	82.3	-0.262
LOC401068 (retired record) (GeneID 401068)	SID160767136	0.339	88.6	1.11
LOC401068 (retired record) (GeneID 401068)	SID160767137	0.0994	83.9	-0.354
QPRT (GeneID 23475)	SID160736355	-0.0161	81.6	0.674
QPRT (GeneID 23475)	SID160736356	1.18	105	1.13
QPRT (GeneID 23475)	SID160736359	0.375	89.3	0.813
